Drawing on patent US20060252697A1 (ANTYRA, published 2006), this text covers binding for 13 molecules.

No constants are given. Whether binding was seen depends on the method and setting. Some binding calls cover weakened binding; strength is not graded here.

Experiment [1] concerns the target T1, rat growth hormone binding protein (rGHBP) (rat) (UniProt P16310).
T1 sequence (looked up): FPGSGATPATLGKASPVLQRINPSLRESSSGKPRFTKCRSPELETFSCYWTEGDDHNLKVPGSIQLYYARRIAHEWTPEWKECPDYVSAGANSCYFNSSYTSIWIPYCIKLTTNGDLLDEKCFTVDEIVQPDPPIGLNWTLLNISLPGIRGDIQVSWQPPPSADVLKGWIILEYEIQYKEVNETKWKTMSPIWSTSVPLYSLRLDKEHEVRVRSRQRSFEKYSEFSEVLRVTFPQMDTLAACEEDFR
The experiment can be described thus: phage ELISA, 10^10 phage/well, rGHBP 100 ng/well.

Experiment [2] deals with T1, rat growth hormone binding protein (rGHBP) (rat). As to the kind of experiment: phage ELISA on rGHBP-coated wells (100 ng/well); clones from panning of the secondary H5 library.
For experiment [3] the target is unchanged. As to the kind of experiment: phage ELISA competition.
Experiment [4] shares this target. As to the kind of experiment: phage ELISA.
Experiment [5] has the same target. The experiment can be described thus: phage ELISA competition on rGHBP (100 ng/well); synthetic H5 peptide against H5 phage.
Experiment [6] shares this target. As to the kind of experiment: BIAcore appKD.
Experiment [7] shares this target. As to the kind of experiment: phage ELISA on coated wells, anti-M13-HRP, OD405.
For experiment [8] the target is unchanged. The experiment can be described thus: phage ELISA competition on rGHBP (100 ng/well); synthetic peptide (with KK at the C-terminus) against H5 phage, 10^10/well.
For experiment [9] the target is unchanged. The experiment can be described thus: phage ELISA, confirmed by BIAcore.
Experiment [10] has the same target. As to the kind of experiment: ELISA, BIAcore and TRFD.
For experiment [11] the target is unchanged. The experiment can be described thus: phage ELISA, 10^10 phage/well, recombinant rGHBP 100 ng/well.
Experiment [12] has the same target. As to the kind of experiment: phage ELISA, clonal analysis, GHBP-coated wells.
For experiment [13] the target is unchanged. As to the kind of experiment: BIAcore at one concentration and phage competition.
Experiment [14] has the same target. As to the kind of experiment: TRFD.
Experiment [15] has the same target. As to the kind of experiment: BIAcore and phage competition.
The target is the same in experiment [16]. As to the kind of experiment: TRFD, rGHBP 100 ng/well, streptavidin-europium; background = pretreatment with >=100 fold excess GH.

As to AYKDLCQSLGVTYPGWLAGWCA [aYKD], in experiment [1], the binding entry was “binds”.
With LCQSLRVRQPGWLSGWCA […], the binding result in [2] is “binds”.
With DYKDLCQSLGVTYPGWLAGWCA (biotinylated in the BIAcore and TRFD formats (position not given)) [GHBP-H5 peptide (H5WT)], the binding entry in [1], in [3], in [4], in experiment [5], in experiment [6] and in experiment [7] was “binds” each time. Moreover, the binding entry in experiment [2], in [8], in [9], in experiment [10] and in experiment [11] was “binds” each time.
Take DYKDAQWWTTIGSNMFVLPGLRGCTFLPPMQCDREIRVFLVVVH [clone 13 peptide]: the binding result in experiment [4] and in experiment [12] was “binds” in each case.
Turning to DYKDLCQSLGVGWPGWLAGWCA [peptide #436], the binding entry in [13] was “binds”.
In the case of DYKDALLHRSRCVRWGKWVCCLPPVGVGGAQANQGMSVQRFRHC [clone HH peptide], the binding entry in experiment [4] and in experiment [12] was “binds” in each case.
On to DYKDLCQRLGVTWPGWLAGWCA (biotinylated in Table I (position not given)) [peptide #443], for which the binding entry in experiment [6] and in [8] was “binds” throughout.
Consider DYKDLCQRLEATWPGWLVGWCA [peptide #417], for which the binding result in [6] is listed as “binds”.
As for DYKDLCQRLGVGWPGWLSGWCA (biotinylated in the bP form (position not given)) [peptide #447], the binding result in experiment [14], in experiment [15], in experiment [16], in experiment [8] and in experiment [10] was “binds” each time.
For DYKDLCQSLGVTWPGWLAGWCA [peptide #432], the binding entry in experiment [13] is given as “binds”.
As to DYKDLCQRLGVGWPGWLAGWCA (biotinylated in the bP form (position not given)) [peptide #445], the binding entry in experiment [13], in experiment [8] and in [10] was “binds” each time.
Turning to DYKALCQSLGVTYPGWLAGWCA [DYKa], the binding result in [1] is given as “binds”.
Turning to DYKDLCQSWQVTWPGWLAGWCA (biotinylated in the bP form (position not given)) [peptide #418], the binding result in experiment [14], in experiment [6], in experiment [16], in [8] and in experiment [10] was “binds” throughout.
